Data taken from PMC10163288.
The other results are listed elsewhere or left out.

B1: il2ra_site2_3nfp_normal_mot_HHH_b1_05437_000000005_0001_40_57_H_._HHH_b1_08057_af2_0001_0000100005_0000001_0 (protein)
chain: SSSSSDELEELLEQIEELLKEGDKEEAKKLLRRVTHLAYERRDFEIFYEVAELLYLLEKLSSSSS
B2: il2ra_site1_2b5i_sap_11_mot_HHH_b2_04463_af2_000000056_0001_43_55_H_._HHH_b1_05331_af2_0001_0000300038_0000001_0_0001 (protein)
chain: SSSSDRELTRAAVRIVWRLMWELNLSREEAQLLNRLAAELVDRGVSPEELEEILREYAEEISSSS
B3: il2ra_site2_2erj_sap_17_mot_HHH_b2_02941_af2_000000183_0001_1_17_H_._a163ca1559da7b4b86abf89ce1a5d894_0001_0001_0000600028_0000001_0_0001_af2pred_0001_1_af2pred … (protein)
chain: SSSSDEEEIRRRVKELLEEAEEIPNLREVLRLLQEALKLAAKLDDPELLKLIKEVFEELSSSSSS
B4: il2ra_site1_3nfp_sap_16_mot_HHH_b1_01231_af2_000000170_0001_1_16_H_._b696cedac0eb12313cfa5cdca89df678_0001_0001_0000700027_0000001_0_0001_af2pred_0001_af2pred_1 … (protein)
chain: GAEEALELLKKVAEELNDPALKFAAKVLEKELRENPEAAERALRLFVERSGNPVLEEVLELLESD
B5: il2ra_site1_1z92_sap_18_mot_HHH_b2_01254_af2_000000148_0001_42_56_H_._HHH_b2_01787_0001_0000100001_0000001_0_0001 (protein)
chain: SVDEELEELLKRGNAEEAERFLRELVEKEGDPELKAALRDLERSQEFGIPPRSVIQAVVEALKRF
B6: il2ra_site2_2erj_normal_mot_HHH_b1_02757_000000121_0001_41_57_H_._HHH_b1_00835_0001_0000300010_0000001_0_af2pred_0001_1_af2pred_swapped (protein)
chain: SSSSSDEEEFRERVRELLEEAEHIPDPREALKVLQEASRLALKADDPELIEEVLEAARRSSSSSS
B7: il2ra_site1_3nfp_normal_mot_HHH_b2_02066_af2_000000034_0001_1_16_H_._56b2e862c5d7020fcb9d25388f5aedda_0001_0001_0000300045_0000001_0_af2pred_0001_af2pred (protein)
chain: STAERFLERAKEDGSLKAVSSVAKAVAKLLNDPELEERIRELEEKAKENPEVQEELIRLAEELLK
B8: il2ra_site1_2b5i_normal_mot_HHH_b2_04461_000000219_0001_1_19_H_._HHH_b1_00060_0001_0000100002_0000001_0_af2pred_dldesign_0_af2pred (protein)
chain: SSSSSPEKEKALKLFLEANELRKAGKEEEAIKLLEEALKLAEKGKAPLLAKIIRSALEDLKSSSS
B9: il2ra_site2_3nfp_normal_mot_HHH_b1_08081_af2_000000020_0001_38_50_H_._HHH_b1_01332_0001_0001100031_0000001_1 (protein)
chain: SSSSDDVERYLRAALLLARRAIEEGDREFAERILKLIRKLAEDARDEEALREAERLLEEVGSSSS
B10: il2ra_site2_2erj_sap_23_mot_HHH_b1_05749_af2_000000058_0001_23_39_H_._7397bc064fdf6bae2cd3d62d454bf56a_0001_1_0001_0000200023_0000001_0_0001_af2pred_0001_1_af2p … (protein)
chain: SSSSSSELREILRRVLELLSRLLEVSPEEAEKLLEEAKELAEESNSPLLKKVVERARKKLSSSSS
B11: il2ra_site2_2erj_sap_18_mot_HHH_b1_02968_000000142_0001_22_39_H_._HHH_b2_06416_0001_0000200008_0000001_0_0001_af2pred_0001_1_af2pred_swapped (protein)
chain: SSSSSELEEILRELVEELVEEFNLSEEQREHLELAARSALEAGADEELAEAFLRLIAEKLHSSSS
B12: il2ra_site1_2b5i_sap_12_mot_HHH_b2_04463_af2_000000056_0001_43_55_H_._HHH_b2_02114_af2_0001_0000100003_0000001_1_0001 (protein)
chain: SSSSNEAAREARELMEKLDEAFRRGDEELLEELLEEIEEFLKEQDDKFLRLAMEQVREELSSSSS
B13: il2ra_site1_1z92_sap_12_mot_HHH_b1_00561_af2_000000294_0001_1_19_H_._HHH_b2_00458_af2_0001_0000100010_0000001_0_0001_af2pred_0001_af2pred_1_swapped (protein)
chain: SSSSDKERSLRYAVELAVKLAGLSEEQQKELEELVEELIKRGVDFLEALRIIDERAAELASSSSS
B14: il2ra_site1_3nfp_normal_mot_1cd86ef9f1587ae5d14d35bbbd8e7f1d_0001_1_000000087_0001_34_49_H_._HHH_b1_06064_0001_0000400037_0000001_0_af2pred_0001_af2pred_1_swapp … (protein)
chain: SSSSSDEEASELNERILRLLFEGNDEEAQELIERLEELAEELNDPKLRKFVELLQRELELLSSSS
B15: il2ra_site2_2erj_sap_12_mot_4428453eb85d3cbdb794fa6b82d21c19_0001_000000044_0001_14_30_H_._HHH_b2_01893_0001_0000400017_0000001_0_0001 (protein)
chain: SSSSSDTKEQVEELYEEIEKITDLHELFRLAVEITARAQESNDEEAIRLVKELLELLHEHSSSSS
B16: il2ra_site1_2b5i_sap_17_mot_HHH_b1_03355_af2_000000029_0001_41_57_H_._HHH_b1_08417_af2_0001_0000300024_0000001_1_0001 (protein)
chain: SSSSDEEIERIQELFAQASRLWRKGNPEEAREVLEEALELAEEAGDPRAARELKHMLERASSSSS
B17: il2ra_site1_3nfp_normal_mot_HHH_b2_01946_000000116_0001_24_41_H_._HHH_b2_03085_af2_0001_0000200032_0000001_0 (protein)
chain: SSSSSEIEEEVKELLEEIERLLREGDWREAAKIAEKVIRLAARGNDEEADRLIHEFLKRLSSSSS
B18: il2ra_site2_2erj_normal_mot_HHH_b2_01204_af2_000000056_0001_19_34_H_._HHH_b1_07526_0001_0000500022_0000001_0 (protein)
chain: SSSSLEEAYKTLVELLRLLSEGDDEKFEELVEEFERKLEEEGDEVTLESFREFAEWLREAQSSSS

molecular target: il2ra, P01589; experiment: yeast display titration

Apparent Kd, inactive:
B1 no binding seen
B2 no binding seen
B3 no binding seen
B4 no binding seen
B5 no binding seen
B6 no binding seen
B7 no binding seen
B8 no binding seen
B9 no binding seen
B10 no binding seen
B11 no binding seen
B12 no binding seen
B13 no binding seen
B14 no binding seen
B15 no binding seen
B16 no binding seen
B17 no binding seen
B18 no binding seen

A section from the list above, for reference:
Apparent Kd, inactive:
B13 no binding seen
B14 no binding seen
